Assay results published in article PMC6504903.
No constants are given. Whether binding was seen depends on the method and setting. Binding seen in cells or lysates may run through a third protein. Some results given as binding are weak or reduced against the parent protein; the word gives no strength. Sequences can lack the tags named with a protein. Values belong to the binder of their own block, whether it stands above or below them.

Tests used:
[1] = molecular target: T1, mCherry-Mps2-GFP11 (budding yeast) (UniProt P53159); assay: split reporter; split-GFP (GFP1-10 and GFP11) in fixed yeast cells read by SIM at the SPB; the Mps2-Mps3 pairs also by three-colour imaging with Spc110-mT2
T1 sequence: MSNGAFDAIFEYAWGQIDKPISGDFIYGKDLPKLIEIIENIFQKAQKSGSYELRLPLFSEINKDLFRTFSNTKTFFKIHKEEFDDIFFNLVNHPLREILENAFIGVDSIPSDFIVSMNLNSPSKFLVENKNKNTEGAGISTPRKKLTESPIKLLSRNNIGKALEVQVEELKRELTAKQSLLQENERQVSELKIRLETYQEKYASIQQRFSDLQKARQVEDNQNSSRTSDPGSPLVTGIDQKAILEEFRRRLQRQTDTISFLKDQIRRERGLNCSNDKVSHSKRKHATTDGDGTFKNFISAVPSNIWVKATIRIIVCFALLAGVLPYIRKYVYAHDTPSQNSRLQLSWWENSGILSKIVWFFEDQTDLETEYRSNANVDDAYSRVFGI

[2] = molecular target: T2, Bbp1-mT2 (budding yeast) (UniProt Q12365); assay: FRET or BRET; acceptor photobleaching FRET at the SPB in fixed, asynchronously growing yeast cells; mT2 donor, YFP acceptor, bleached at 514 nm for 1 min; relative FRET efficiency against the donor-only control
T2 sequence: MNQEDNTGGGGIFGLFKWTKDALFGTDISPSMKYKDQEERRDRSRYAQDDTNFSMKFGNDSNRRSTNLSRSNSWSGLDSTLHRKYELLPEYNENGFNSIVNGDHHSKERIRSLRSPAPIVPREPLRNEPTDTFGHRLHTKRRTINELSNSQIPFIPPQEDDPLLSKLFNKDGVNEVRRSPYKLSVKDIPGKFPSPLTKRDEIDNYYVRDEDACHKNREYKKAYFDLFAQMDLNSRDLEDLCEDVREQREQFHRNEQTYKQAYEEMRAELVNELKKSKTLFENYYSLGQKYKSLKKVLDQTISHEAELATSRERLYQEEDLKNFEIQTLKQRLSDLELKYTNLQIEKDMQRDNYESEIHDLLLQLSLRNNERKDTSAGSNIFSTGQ

[3] = molecular target: T3, Ndc1-mT2 (budding yeast), P32500; assay: as above; details: remark: other sources report otherwise
T3 chain: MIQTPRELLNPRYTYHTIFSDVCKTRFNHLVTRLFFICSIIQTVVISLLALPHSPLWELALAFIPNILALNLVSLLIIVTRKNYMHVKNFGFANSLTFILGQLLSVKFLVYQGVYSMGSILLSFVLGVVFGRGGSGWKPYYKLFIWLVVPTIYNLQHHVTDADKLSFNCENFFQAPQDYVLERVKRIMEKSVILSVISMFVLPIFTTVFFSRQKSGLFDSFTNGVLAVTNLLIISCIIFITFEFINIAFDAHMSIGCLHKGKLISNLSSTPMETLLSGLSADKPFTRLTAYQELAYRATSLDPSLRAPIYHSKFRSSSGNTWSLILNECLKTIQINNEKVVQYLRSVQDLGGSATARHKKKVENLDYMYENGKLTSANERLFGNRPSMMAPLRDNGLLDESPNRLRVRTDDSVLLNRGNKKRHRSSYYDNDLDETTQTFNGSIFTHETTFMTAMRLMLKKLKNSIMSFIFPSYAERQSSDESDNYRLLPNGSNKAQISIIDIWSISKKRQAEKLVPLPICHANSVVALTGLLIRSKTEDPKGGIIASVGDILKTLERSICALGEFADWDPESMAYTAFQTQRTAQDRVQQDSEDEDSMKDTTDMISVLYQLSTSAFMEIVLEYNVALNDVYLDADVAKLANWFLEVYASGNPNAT

binding [1]: binds
B1: Mps3-GFP_(1–10) (protein, UniProt P47069 1-682)
chain: MNNSNEHRREEAGAANEQMPYNKAVKSAYADVLKDKMNREQEISLRAIKKGIYTDGGETDNYDMDKENDSAYEMFKKNLDFPLDQHNDDDDDDPYIEDNGQETDGYSDEDYTDEADKSFIEDSDSDSYDLESNSDFEENLESSGEAKKLKWRTYIFYGGLFFVFYFFGSFLMTTVKNNDLESHSSGATSSPGKSFSNLQKQVNHLYSELSKRDEKHSSELDKTVKIIVSQFEKNIKRLLPSNLVNFENDINSLTKQVETISTSMSELQRRNHKFTVENVTQWQDQLVKQLDTHLPQEIPVVINNSSSLLIIPELHNYLSALISDVIESPGIGTAGSAESRWEYDLNRYVKEILSNELQYIDKDYFIQEMNRRLQSNKQEIWEEITNRLETQQQQQQQQVQQDYSNVPQQYSSILMKRLIHQIYNSNQHQWEDDLDFATYVQGTKLLNHLTSPTWRQGSGVQPIELLTDSKQSSSTYWQCENEPGCSWAIRFKTPLYLTKISYMHGRFTNNLHIMNSAPRLISLYVKLSQTKEIKALQTLANQYGFGQHHKRDRNYIKIAKFEYRLTDSRIRQQMYLPPWFIQLKPLVRSIVFQVDENYGNKKFISLRKFIINGVTPQDLQIIENNEFPVLLGDTPEYGVTQNTDEGKRKVLLSKPPYASSSTSTKFHPASNVPSFGQDELDQ

binding [2]: no binding
B2: YFP-Mps3 (protein, UniProt P47069 1-682)
chain: B1 chain

binding [3]: no binding
B3: YFP-Mps3, P47069 1-682 (protein)
chain: B1 chain
